Consider one substance from patent US20040170997A1.

In test [1] the target is T1, FLAG-tagged mouse TRAF2 (mouse) (UniProt P39429).
T1 sequence (looked up): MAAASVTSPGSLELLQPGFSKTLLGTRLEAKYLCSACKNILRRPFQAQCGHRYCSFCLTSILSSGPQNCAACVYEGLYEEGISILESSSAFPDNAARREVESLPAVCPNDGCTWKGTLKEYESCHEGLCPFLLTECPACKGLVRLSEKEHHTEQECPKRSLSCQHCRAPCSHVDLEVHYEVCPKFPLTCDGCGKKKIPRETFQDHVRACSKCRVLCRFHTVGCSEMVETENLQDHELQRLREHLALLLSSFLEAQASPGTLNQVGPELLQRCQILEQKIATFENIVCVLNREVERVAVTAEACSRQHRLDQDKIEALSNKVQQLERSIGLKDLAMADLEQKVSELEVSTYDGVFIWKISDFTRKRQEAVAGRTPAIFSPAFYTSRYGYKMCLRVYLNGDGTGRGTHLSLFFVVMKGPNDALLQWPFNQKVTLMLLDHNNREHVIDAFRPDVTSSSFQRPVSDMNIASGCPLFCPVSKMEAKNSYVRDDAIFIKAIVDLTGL
As to the kind of experiment: GST pull-down from 293 cell lysate, anti-FLAG immunoblot (FIG. 2A).

Test [2] addresses T2, FLAG-tagged mouse TRAF3 (mouse) (UniProt Q60803).
T2 sequence (looked up): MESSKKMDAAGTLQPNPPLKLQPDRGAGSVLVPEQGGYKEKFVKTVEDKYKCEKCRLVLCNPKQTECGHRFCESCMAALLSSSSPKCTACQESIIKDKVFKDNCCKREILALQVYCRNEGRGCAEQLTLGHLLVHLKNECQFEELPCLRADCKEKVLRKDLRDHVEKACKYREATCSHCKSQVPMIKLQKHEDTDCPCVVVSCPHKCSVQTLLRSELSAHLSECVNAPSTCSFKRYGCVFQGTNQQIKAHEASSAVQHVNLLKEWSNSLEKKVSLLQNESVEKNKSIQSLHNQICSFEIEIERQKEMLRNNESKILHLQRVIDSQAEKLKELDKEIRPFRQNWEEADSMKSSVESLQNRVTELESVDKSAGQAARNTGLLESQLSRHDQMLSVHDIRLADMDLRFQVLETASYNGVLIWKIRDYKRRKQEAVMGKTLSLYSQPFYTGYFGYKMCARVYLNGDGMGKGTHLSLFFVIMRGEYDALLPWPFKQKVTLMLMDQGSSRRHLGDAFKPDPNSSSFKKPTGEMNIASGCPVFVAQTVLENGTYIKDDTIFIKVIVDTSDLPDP
The description is as above.

Results are given in words; binding and its absence hold for the method and conditions named. In cells and extracts the contact can be indirect. Some entries that bind do so weakly or less than the wild type. Sequences can lack the tags named with a protein.

As for “GST-clone 10 (from UniProt Q61214 284-763)”, the binding result in test [1] and in test [2] was “binds” throughout.
